Measured values taken from patent US20230416345A1, “NEW TYPE II COLLAGEN BINDING PROTEINS” (Navigo Proteins GmbH, priority 2020, published 2023).
No constants are given. Whether binding was seen depends on the method and setting. Some binding calls cover weakened binding; strength is not graded here.

By UniProt entry, the sequences of proteins in these tests, tags left out. Where a name states a change or a piece, a line headed by the entry shows the natural chain unless it says otherwise. Residues count along the entry.
UniProt P02452: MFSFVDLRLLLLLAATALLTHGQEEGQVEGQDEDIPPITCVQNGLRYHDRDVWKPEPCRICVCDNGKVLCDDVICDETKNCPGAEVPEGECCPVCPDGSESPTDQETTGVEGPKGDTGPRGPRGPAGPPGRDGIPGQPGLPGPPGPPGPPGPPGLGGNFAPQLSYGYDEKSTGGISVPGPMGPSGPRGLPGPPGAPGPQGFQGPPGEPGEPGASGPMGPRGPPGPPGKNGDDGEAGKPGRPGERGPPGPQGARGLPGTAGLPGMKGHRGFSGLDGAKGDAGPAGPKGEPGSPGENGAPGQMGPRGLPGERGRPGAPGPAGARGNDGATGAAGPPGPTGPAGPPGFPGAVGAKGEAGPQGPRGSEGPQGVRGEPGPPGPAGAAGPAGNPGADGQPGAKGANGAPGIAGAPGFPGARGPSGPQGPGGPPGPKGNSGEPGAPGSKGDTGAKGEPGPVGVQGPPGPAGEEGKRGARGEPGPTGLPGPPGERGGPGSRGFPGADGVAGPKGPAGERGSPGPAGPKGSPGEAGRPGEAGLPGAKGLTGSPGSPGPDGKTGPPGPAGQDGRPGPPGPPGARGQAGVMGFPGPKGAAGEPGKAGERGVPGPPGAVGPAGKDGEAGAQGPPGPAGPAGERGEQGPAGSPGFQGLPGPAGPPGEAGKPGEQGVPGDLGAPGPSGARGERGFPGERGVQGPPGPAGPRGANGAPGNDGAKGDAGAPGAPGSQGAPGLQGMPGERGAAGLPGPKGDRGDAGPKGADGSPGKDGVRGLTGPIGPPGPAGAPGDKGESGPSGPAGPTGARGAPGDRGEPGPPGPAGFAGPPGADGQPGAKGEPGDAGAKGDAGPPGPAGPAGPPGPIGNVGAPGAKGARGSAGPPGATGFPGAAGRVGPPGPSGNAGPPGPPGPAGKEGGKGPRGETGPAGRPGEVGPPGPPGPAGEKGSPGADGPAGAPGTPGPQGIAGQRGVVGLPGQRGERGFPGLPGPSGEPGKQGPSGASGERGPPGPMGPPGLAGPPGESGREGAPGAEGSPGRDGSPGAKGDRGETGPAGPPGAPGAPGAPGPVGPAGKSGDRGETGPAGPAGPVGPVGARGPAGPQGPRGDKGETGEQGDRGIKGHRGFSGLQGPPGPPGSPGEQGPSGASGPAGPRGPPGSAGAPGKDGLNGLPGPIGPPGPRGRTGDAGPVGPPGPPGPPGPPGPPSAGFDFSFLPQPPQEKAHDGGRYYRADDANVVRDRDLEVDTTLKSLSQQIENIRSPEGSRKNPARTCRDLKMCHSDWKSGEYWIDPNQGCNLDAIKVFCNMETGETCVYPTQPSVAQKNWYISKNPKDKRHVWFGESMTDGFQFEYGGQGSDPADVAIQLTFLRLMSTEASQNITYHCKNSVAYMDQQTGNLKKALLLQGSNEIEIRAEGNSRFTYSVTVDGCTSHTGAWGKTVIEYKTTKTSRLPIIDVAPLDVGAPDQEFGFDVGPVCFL
UniProt P08123: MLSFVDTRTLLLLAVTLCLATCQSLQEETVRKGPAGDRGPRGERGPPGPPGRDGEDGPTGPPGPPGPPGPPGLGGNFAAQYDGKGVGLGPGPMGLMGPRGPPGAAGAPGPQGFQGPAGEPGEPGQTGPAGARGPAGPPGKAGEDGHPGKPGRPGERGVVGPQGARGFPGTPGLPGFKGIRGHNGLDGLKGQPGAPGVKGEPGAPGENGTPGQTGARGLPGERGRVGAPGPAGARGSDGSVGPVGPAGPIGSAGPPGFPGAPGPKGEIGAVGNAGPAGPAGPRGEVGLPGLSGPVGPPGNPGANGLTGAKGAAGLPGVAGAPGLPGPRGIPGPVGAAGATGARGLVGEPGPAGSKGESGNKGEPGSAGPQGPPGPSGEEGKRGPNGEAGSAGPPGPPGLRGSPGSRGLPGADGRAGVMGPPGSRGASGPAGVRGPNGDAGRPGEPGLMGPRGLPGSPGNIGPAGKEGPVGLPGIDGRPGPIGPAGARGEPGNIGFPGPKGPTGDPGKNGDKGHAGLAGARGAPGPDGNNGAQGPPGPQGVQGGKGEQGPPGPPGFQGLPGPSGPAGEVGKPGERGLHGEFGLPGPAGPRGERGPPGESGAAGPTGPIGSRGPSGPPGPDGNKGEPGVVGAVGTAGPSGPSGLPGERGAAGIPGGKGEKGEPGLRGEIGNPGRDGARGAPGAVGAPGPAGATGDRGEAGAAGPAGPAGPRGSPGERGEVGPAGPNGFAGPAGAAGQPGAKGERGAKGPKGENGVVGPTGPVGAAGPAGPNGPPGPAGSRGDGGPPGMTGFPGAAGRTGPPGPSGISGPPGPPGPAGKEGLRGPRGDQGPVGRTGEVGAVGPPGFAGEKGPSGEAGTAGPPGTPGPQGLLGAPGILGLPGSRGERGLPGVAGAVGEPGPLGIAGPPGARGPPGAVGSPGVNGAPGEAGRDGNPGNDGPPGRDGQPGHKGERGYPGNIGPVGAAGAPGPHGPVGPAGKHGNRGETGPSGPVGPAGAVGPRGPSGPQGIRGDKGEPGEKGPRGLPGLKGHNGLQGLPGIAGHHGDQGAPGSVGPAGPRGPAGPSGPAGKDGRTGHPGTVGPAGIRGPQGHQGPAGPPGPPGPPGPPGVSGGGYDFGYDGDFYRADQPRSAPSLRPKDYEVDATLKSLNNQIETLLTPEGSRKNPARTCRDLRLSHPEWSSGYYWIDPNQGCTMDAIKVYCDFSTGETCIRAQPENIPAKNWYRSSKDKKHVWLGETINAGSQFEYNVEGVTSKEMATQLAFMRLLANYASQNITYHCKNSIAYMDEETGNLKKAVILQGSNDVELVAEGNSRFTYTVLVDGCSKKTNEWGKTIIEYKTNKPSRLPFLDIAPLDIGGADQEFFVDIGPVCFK
UniProt P02461, residues 154-1221: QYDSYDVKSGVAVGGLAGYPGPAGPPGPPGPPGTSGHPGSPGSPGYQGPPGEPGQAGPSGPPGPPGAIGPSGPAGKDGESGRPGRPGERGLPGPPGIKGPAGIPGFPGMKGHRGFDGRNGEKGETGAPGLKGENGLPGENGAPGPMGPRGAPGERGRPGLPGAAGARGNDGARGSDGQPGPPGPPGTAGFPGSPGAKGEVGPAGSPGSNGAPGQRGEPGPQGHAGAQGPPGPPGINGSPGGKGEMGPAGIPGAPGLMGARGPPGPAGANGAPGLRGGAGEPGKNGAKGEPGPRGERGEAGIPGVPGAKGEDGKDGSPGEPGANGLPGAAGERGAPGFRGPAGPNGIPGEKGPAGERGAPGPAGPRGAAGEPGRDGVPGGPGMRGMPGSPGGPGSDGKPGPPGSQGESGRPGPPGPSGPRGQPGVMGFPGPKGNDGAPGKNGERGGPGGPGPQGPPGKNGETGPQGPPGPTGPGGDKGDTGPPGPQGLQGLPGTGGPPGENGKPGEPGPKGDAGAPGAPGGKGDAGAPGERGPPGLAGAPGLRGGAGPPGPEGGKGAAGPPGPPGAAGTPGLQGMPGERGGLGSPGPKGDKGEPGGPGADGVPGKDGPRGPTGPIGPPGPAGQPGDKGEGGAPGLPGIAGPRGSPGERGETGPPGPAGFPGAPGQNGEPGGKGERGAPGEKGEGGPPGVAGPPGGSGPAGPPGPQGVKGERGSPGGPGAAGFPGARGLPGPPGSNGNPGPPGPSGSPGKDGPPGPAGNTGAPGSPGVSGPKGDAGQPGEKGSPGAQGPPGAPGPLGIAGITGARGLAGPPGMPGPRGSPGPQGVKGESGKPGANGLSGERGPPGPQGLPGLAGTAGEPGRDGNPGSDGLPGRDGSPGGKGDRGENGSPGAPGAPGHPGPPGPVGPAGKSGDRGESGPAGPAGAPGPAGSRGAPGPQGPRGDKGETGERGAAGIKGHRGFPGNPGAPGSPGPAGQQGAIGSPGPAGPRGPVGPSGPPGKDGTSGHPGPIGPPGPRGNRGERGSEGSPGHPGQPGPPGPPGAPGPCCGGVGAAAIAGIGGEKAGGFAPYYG

Assays:
[1] = target: T1, human collagen type I (human) (UniProt P02452+P08123); experiment: ELISA
[2] = target: human collagen type III (human) (UniProt P02461); experiment: ELISA
[3] = target: T1, human collagen type I (human); experiment: SPR (Biacore 3000)
[4] = target: human collagen type III (human) (UniProt P02461); experiment: SPR (Biacore 3000)

- binding [1]: binds
- binding [2]: binds
- binding [3]: binds
- binding [4]: binds
B1: 211190 (SEQ ID NO: 1) (designed binder, not shown: small tags and cut ends)
chain: NAASHDEAQLSALVEIWDLPNLTTRQKQKFIYSLQRDPSVSKEVLGEAQKLNDSQAPK
